In PMC8266576, “TnpAREP and REP sequences dissemination in bacterial genomes: REP recognition determinants”:
Construct, isoform or probe ends are uncertain for at least one entry. The comparison behind a weaker result is the experiment's own reference, which may not be listed here. Where a protein sequence is shown, tags need not be part of it. At least one verdict was read from the data and is not stated in words by the source.

Target: T1, TnpAREP Ec (TnpAEc-His6) (Escherichia coli) (UniProt Q47152)
T1 sequence (looked up, limits assumed): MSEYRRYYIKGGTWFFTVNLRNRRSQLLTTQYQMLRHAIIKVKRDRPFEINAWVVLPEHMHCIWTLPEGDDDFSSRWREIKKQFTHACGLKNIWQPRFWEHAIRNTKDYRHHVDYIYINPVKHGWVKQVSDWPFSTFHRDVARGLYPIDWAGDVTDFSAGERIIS
Assay: EMSA
Conditions: no divalent metal, EMSA: 12.5 mM Tris pH 7.5, 120 mM NaCl, 1 mM DTT, 20 ug/ml BSA, 0.5 ug poly-dIdC, 7% glycerol, 0.02 uM labelled + 0.5 uM unlabelled oligonucleotide, recombinant protein, protein details: His6 (C-terminal by name), label: 5'-32P, folded or branched DNA

Row | Sequence | binding result (2 and 4 uM protein) | binding result
1 | GTAGGACGGAAAAGGCGTTTACGCCGCTTCCGGCAGTTGTACGCAGGTGCCTGATGCGACG [F268 T11A] | binds more weakly | 
2 | GTAGGACGGATAACCGCTAAAGCGGGCATCCGGCAGTTGTACGCAGGTGCCTGATGCGACG [B2680 mut upper stem (complement of upper stem)] |  | binds
3 | GTAGGAGGGATAAGGCGTTTACGCCGCATCCCGCAGTTGTACGCAGGTGCCTGATGCGACG [E268 G32C] | binds more weakly | 
